Data as given in PubChem BioAssay AID493246 (Drosophila RNAi Screening Center, 2011)
Assay: 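Genes fly cells need to grow and stay alive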 (primary screen). Cell system: Drosophila Kc and S2R+ cells. Reagent: long dsRNA against Drosophila genes. Read-out: 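Cell number per well after knock-down, printed as raw plate values; calls were based on per-plate z-scores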. Direction: Kc cell number and S2R+ cell number: higher = more cells remaining. Call rule: 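Active when the per-plate z-score of cell number is 3 or more in the direction of fewer cells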.
In all, the deposit lists about 21,000 reagents; this is an unselected part of those that have a named target and a result. Over the whole deposit, 429 (2%) were called active. 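Values are raw and not normalised between plates; calls rest on per-plate z-scores that were not deposited.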 The numbers tell different reagents against one gene apart. The record does not give: the amount of reagent, the time to read-out.

For IP3K1 (GeneID 34300), what was measured?
Kc cell number, rep 1: 1.41e6; Kc cell number, rep 2: 1.48e6; S2R+ cell number, rep 1: 1.10e6; S2R+ cell number, rep 2: 1.17e6; Outcome: inactive

For Pus10 (GeneID 33178), what does the deposit list?
Kc cell number, rep 1: 1.13e6; Kc cell number, rep 2: 1.23e6; S2R+ cell number, rep 1: 5.24e5; S2R+ cell number, rep 2: 6.68e5; Outcome: inactive

For CG7376 (GeneID 38715), what was measured?
Kc cell number, rep 1: 1.34e6; Kc cell number, rep 2: 1.47e6; S2R+ cell number, rep 1: 1.15e6; S2R+ cell number, rep 2: 1.09e6; Outcome: inactive

With fsd (GeneID 36463), how do the results read?
Kc cell number, rep 1: 1.61e6; Kc cell number, rep 2: 1.64e6; S2R+ cell number, rep 1: 1.38e6; S2R+ cell number, rep 2: 1.47e6; Outcome: inactive

Which result is listed for Brms1 (GeneID 32243)?
Kc cell number, rep 1: 1.54e6; Kc cell number, rep 2: 1.45e6; S2R+ cell number, rep 1: 9.28e5; S2R+ cell number, rep 2: 1.00e6; Outcome: inactive

What did the screen give for CG4593 (GeneID 31649)?
Kc cell number, rep 1: 1.52e6; Kc cell number, rep 2: 1.45e6; S2R+ cell number, rep 1: 8.88e5; S2R+ cell number, rep 2: 1.01e6; Outcome: inactive

With CG42445 (GeneID 8674111), how do the results read?
Kc cell number, rep 1: 1.53e6; Kc cell number, rep 2: 1.42e6; S2R+ cell number, rep 1: 1.42e6; S2R+ cell number, rep 2: 1.32e6; Outcome: inactive

For CG14856 (GeneID 41790), how do the results read?
Kc cell number, rep 1: 1.28e6; Kc cell number, rep 2: 1.36e6; S2R+ cell number, rep 1: 1.08e6; S2R+ cell number, rep 2: 1.17e6; Outcome: inactive

What did the screen give for CG12123 (GeneID 31777)?
Kc cell number, rep 1: 6.18e5; S2R+ cell number, rep 1: 8.83e5; Outcome: inactive

With CG7407 (GeneID 40430), what does the deposit list?
Kc cell number, rep 1: 1.46e6; Kc cell number, rep 2: 1.50e6; S2R+ cell number, rep 1: 1.32e6; S2R+ cell number, rep 2: 1.31e6; Outcome: inactive

For CG7341 (GeneID 40004), what was measured?
Kc cell number, rep 1: 1.46e6; Kc cell number, rep 2: 1.49e6; S2R+ cell number, rep 1: 1.20e6; S2R+ cell number, rep 2: 1.35e6; Outcome: inactive

For CG3104 (GeneID 33486), what was measured?
Kc cell number, rep 1: 1.50e6; Kc cell number, rep 2: 1.61e6; S2R+ cell number, rep 1: 1.05e6; S2R+ cell number, rep 2: 1.04e6; Outcome: inactive

What is on record for CG5913 (GeneID 43132)?
Kc cell number, rep 1: 1.48e6; Kc cell number, rep 2: 1.48e6; S2R+ cell number, rep 1: 9.73e5; S2R+ cell number, rep 2: 1.04e6; Outcome: inactive

For lbk (GeneID 36788), how do the results read?
Kc cell number, rep 1: 1.41e6; Kc cell number, rep 2: 1.41e6; S2R+ cell number, rep 1: 1.25e6; S2R+ cell number, rep 2: 1.27e6; Outcome: inactive

For CG1344 (GeneID 35500), what was measured?
Kc cell number, rep 1: 1.37e6; Kc cell number, rep 2: 1.42e6; S2R+ cell number, rep 1: 1.09e6; S2R+ cell number, rep 2: 1.14e6; Outcome: inactive

For Grip91 (GeneID 48481), what was measured?
Kc cell number, rep 1: 5.92e5; S2R+ cell number, rep 1: 9.09e5; Outcome: inactive

With Cad96Ca (GeneID 43026) #1, how do the results read?
Kc cell number, rep 1: 1.51e6; Kc cell number, rep 2: 1.43e6; S2R+ cell number, rep 1: 9.57e5; S2R+ cell number, rep 2: 1.07e6; Outcome: inactive

For Cad96Ca (GeneID 43026) #2, how do the results read?
Kc cell number, rep 1: 1.48e6; Kc cell number, rep 2: 1.43e6; S2R+ cell number, rep 1: 1.01e6; S2R+ cell number, rep 2: 1.07e6; Outcome: inactive

For fend (GeneID 31843) #1, how do the results read?
Kc cell number, rep 1: 1.35e6; Kc cell number, rep 2: 1.49e6; S2R+ cell number, rep 1: 1.04e6; S2R+ cell number, rep 2: 1.15e6; Outcome: inactive

For fend (GeneID 31843) #2, what was measured?
Kc cell number, rep 1: 1.68e6; Kc cell number, rep 2: 1.63e6; S2R+ cell number, rep 1: 1.04e6; S2R+ cell number, rep 2: 1.12e6; Outcome: inactive

With CG7974 (GeneID 38207), what was measured?
Kc cell number, rep 1: 1.33e6; Kc cell number, rep 2: 1.40e6; S2R+ cell number, rep 1: 1.23e6; S2R+ cell number, rep 2: 1.20e6; Outcome: inactive

What is on record for CG2794 (GeneID 33233)?
Kc cell number, rep 1: 1.51e6; Kc cell number, rep 2: 1.56e6; S2R+ cell number, rep 1: 1.06e6; S2R+ cell number, rep 2: 1.30e6; Outcome: inactive

With NKCC (GeneID 40663) #1, what was measured?
Kc cell number, rep 1: 1.77e6; Kc cell number, rep 2: 1.85e6; S2R+ cell number, rep 1: 1.22e6; S2R+ cell number, rep 2: 1.34e6; Outcome: inactive

What is on record for NKCC (GeneID 40663) #2?
Kc cell number, rep 1: 1.38e6; Kc cell number, rep 2: 1.50e6; S2R+ cell number, rep 1: 1.32e6; S2R+ cell number, rep 2: 1.40e6; Outcome: inactive

What did the screen give for ringer (GeneID 39813)?
Kc cell number, rep 1: 1.44e6; Kc cell number, rep 2: 1.63e6; S2R+ cell number, rep 1: 1.33e6; S2R+ cell number, rep 2: 1.43e6; Outcome: inactive

For CG32243 (GeneID 317935), how do the results read?
Kc cell number, rep 1: 1.77e6; Kc cell number, rep 2: 1.63e6; S2R+ cell number, rep 1: 1.07e6; S2R+ cell number, rep 2: 1.24e6; Outcome: inactive

For CG12655 (GeneID 33004), what was measured?
Kc cell number, rep 1: 1.45e6; Kc cell number, rep 2: 1.46e6; S2R+ cell number, rep 1: 1.03e6; S2R+ cell number, rep 2: 1.04e6; Outcome: inactive
